We go through two sequences from publication PMC3834820.

Chains of the proteins cited; added tags and fusions are not shown. Lines headed by an entry give the natural chain unless they say otherwise; changes in a name come on top. Residues count along the entry.
UniProt P0A7G6, 2-353: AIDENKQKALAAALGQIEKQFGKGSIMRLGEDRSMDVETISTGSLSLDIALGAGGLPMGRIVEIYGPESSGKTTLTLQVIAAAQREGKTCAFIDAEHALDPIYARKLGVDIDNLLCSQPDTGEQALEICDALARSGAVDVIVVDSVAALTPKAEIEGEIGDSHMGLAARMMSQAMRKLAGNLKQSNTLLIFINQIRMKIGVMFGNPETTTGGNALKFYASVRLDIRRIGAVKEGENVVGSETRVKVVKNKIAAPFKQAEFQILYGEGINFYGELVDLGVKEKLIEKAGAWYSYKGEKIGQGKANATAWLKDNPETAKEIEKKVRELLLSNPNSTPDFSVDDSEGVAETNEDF
UniProt P0A7C2: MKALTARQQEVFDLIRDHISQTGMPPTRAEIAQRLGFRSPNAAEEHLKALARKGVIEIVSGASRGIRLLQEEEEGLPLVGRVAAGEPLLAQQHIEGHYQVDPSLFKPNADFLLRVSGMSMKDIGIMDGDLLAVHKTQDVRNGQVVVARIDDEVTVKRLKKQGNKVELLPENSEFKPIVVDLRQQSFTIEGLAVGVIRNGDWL

One data set addresses RecA (UniProt P0A7G6). Description: filament formation (used for cross-linking). The settings on record: 1 mM ATPgS, 2 mM MgCl2; recombinant protein; single-stranded DNA.
The next data set concerns the target LexA(M24C) oxidized (UniProt P0A7C2). Description: SPR. The settings on record: 150 nM, similar binding to wt, LexA-operator SPR: 20 mM NaH2PO4 pH 7.3, 0.14 M NaCl, 0.005% P20, 25 C, RecA-SKBT25: 20 mM NaH2PO4 pH 7.3, 1 mM ATPgS, 2 mM MgCl2, 0.05 mM Ellman's reagent, on ice, recombinant protein, label: 3' TEG-biotin on S9.

The exact form of at least one protein or probe is not confirmed. For some assays here: At least one verdict rests on a figure or table, not on a statement of the authors.

In the case of GCGTGTGTGGTGGTGTGC [SKBT25], in the data set with RecA, the binding result was “binds”.

“GTTACTACTCGAGCGATTACTGTTTATTTATACAGTAAA / TTTACTGTATAAATAAACAGTAAT / CGCTCGAGTAGTAAC [tisB operator SPR fragment]”: in the data set with LexA(M24C) oxidized, the binding result was “binds”.
